Earlier results in patent publication US20200277646A1, “METHOD OF DETERMINING TERPENE-BASED BIOCONTROL AGENTS FOR CANNABIS AND HEMP” (priority 2019, published 2020).
Some entries share one result that the patent states for a list of compounds. At least one compound was matched to its structure with a doubt left. Some compounds share one range, which may span the group rather than tell each member.

Details: of the tissue treated with neat terpenes; cited from earlier work

SMILES: C=C(C)[C@H]1CC=C(C)CC1 [limonene]
- intercellular concentration: 40-60%
